# Laboratory results published in PMC3395635.
# No constants are given. Whether binding was seen depends on the method and setting. In cells and extracts the contact can be indirect.
# Molecular target: HIV-1 integrase with a C-terminal biotin acceptor sequence, biotinylated (virus NLXINB) (HIV-1)
# Experiment: pull-down
binder,measurement,value
"MCCA (protein, UniProt Q96RQ3 42-725, binds endogenous biotin) TTATGRNITKVLIANRGEIACRVMRTAKKLGVQTVAVYSEADRNSMHVDMADEAYSIGPAPSQQSYLSMEKIIQVAKTSAAQAIHPGCGFLSENMEFAELCKQEGIIFIGPPPSAIRDMGIKSTSKSIMAAAGVPVVEGYHGEDQSDQCLKEHARRIGYPVMIKAVRGGGGKGMRIVRSEQEFQEQLESARREAKKSFNDDAMLIEKFVDTPRHVEVQVFGDHHGNAVYLFERDCSVQRRHQKIIEEAPAPGIKSEVRKKLGEAAVRAAKAVNYVGAGTVEFIMDSKHNFCFMEMNTRLQVEHPVTEMITGTDLVEWQLRIAAGEKIPLSQEEITLQGHAFEARIYAEDPSNNFMPVAGPLVHLSTPRADPSTRIETGVRQGDEVSVHYDPMIAKLVVWAADRQAALTKLRYSLRQYNIVGLHTNIDFLLNLSGHPEFEAGNVHTDFIPQHHKQLLLSRKAAAKESLCQAALGLILKEKAMTDTFTLQAHDQFSPFSSSSGRRLNISYTRNMTLKDGKNNVAIAVTYNHDGSYSMQIEDKTFQVLGNLYSEGDCTYLKCSVNGVASKAKLIILENTIYLFSKEGSIEIDIPVPKYLSSVSSQETQGGPLAPMTGTIEKVFVKAGDKVKAGDSLMVMIAMKMEHTIKSPKDGTVKKVFYREGAQANRHTPLVEFEEEESDKRESE",binding,no binding
